PubChem BioAssay AID1259254 – NCATS – 2017
Here is one part, drawn at random, of about 59,000 reagents. Of all reagents, about 1,550 (2.6%) got an active call. 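G2 share is only a proxy for re-replication; each gene was hit by three separate siRNAs, and active genes were retested.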 Further read-outs or replicates are left out here. Not stated in the record: the amount of reagent.

Test: 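Genome-wide screen for genes that prevent DNA re-replication in cancer cells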 (primary screen)
Cells: human HCT116 colorectal cancer cells
Reagent: single siRNA against human genes
Timing: 3 days
Measured: 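Nuclei stained with Hoechst and imaged; cell-cycle phase assigned by DNA content; G2 share scaled per plate, non-targeting siRNA 0%, GMNN siRNA 100%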
Scale: G2 robust z-score and G2 cells, % of GMNN control: higher = more G2 cells, more excess DNA replication
Rule for the call: 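Active siRNAs have a G2 robust z of 5 or more median absolute deviations over the median, which in these data means about 38% or higher of GMNN control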

gene	PubChem SID	G2 robust z-score	G2 cells, % of GMNN control	call
ASB5 (ankyrin repeat and SOCS box containing 5)	SID160757763	0.883	9.18	inactive
ASB5 (ankyrin repeat and SOCS box containing 5)	SID160757764	1.05	10.4	inactive
ASB5 (ankyrin repeat and SOCS box containing 5)	SID160757765	0.625	7.37	inactive
RPS12P4 (ribosomal protein S12 pseudogene 4)	SID160725308	3.5	27.6	inactive
RPS12P4 (ribosomal protein S12 pseudogene 4)	SID160733274	-0.221	1.41	inactive
RPS12P4 (ribosomal protein S12 pseudogene 4)	SID160766690	0.23	4.59	inactive
RPL17P39 (ribosomal protein L17 pseudogene 39)	SID160769503	3.54	27.9	inactive
RPL17P39 (ribosomal protein L17 pseudogene 39)	SID160769504	-0.0337	2.73	inactive
RPL17P39 (ribosomal protein L17 pseudogene 39)	SID160769505	-0.255	1.18	inactive
BRINP1 (BMP/retinoic acid inducible neural specific 1)	SID160752692	3.44	27.1	inactive
BRINP1 (BMP/retinoic acid inducible neural specific 1)	SID160752703	2.26	18.8	inactive
BRINP1 (BMP/retinoic acid inducible neural specific 1)	SID160752712	-0.369	0.374	inactive
DMAC2 (distal membrane arm assembly component 2)	SID160742937	-0.521	-0.696	inactive
DMAC2 (distal membrane arm assembly component 2)	SID160742938	2.25	18.8	inactive
DMAC2 (distal membrane arm assembly component 2)	SID160742940	1.62	14.4	inactive
FHIP1B (FHF complex subunit HOOK interacting protein 1B)	SID160751660	-0.999	-4.06	inactive
FHIP1B (FHF complex subunit HOOK interacting protein 1B)	SID160751661	-0.462	-0.284	inactive
FHIP1B (FHF complex subunit HOOK interacting protein 1B)	SID160751662	-0.359	0.44	inactive
NECAB1 (N-terminal EF-hand calcium binding protein 1)	SID160747542	-0.75	-2.31	inactive
NECAB1 (N-terminal EF-hand calcium binding protein 1)	SID160747543	3.82	29.8	inactive
NECAB1 (N-terminal EF-hand calcium binding protein 1)	SID160747544	1.17	11.2	inactive
CYSRT1 (cysteine rich tail 1)	SID160725159	-0.461	-0.275	inactive
CYSRT1 (cysteine rich tail 1)	SID160725160	-0.202	1.54	inactive
CYSRT1 (cysteine rich tail 1)	SID160725161	-0.893	-3.32	inactive
MFAP3L (microfibril associated protein 3 like)	SID160723245	-0.205	1.53	inactive
MFAP3L (microfibril associated protein 3 like)	SID160723246	-0.453	-0.222	inactive
MFAP3L (microfibril associated protein 3 like)	SID160723247	0.261	4.8	inactive
GRIN3A (glutamate ionotropic receptor NMDA type subunit 3A)	SID160755421	-0.614	-1.35	inactive
GRIN3A (glutamate ionotropic receptor NMDA type subunit 3A)	SID160755422	1.23	11.6	inactive
GRIN3A (glutamate ionotropic receptor NMDA type subunit 3A)	SID160755423	0.116	3.79	inactive
FAXDC2 (fatty acid hydroxylase domain containing 2)	SID160729303	-0.0575	2.56	inactive
FAXDC2 (fatty acid hydroxylase domain containing 2)	SID160729304	0.387	5.69	inactive
FAXDC2 (fatty acid hydroxylase domain containing 2)	SID160729305	0.715	8	inactive
GUCA1B (guanylate cyclase activator 1B)	SID160774727	-0.455	-0.237	inactive
GUCA1B (guanylate cyclase activator 1B)	SID160774728	-0.805	-2.7	inactive
GUCA1B (guanylate cyclase activator 1B)	SID160774729	-0.614	-1.35	inactive
FDX2 (ferredoxin 2)	SID160732328	0.724	8.06	inactive
FDX2 (ferredoxin 2)	SID160732329	-0.792	-2.6	inactive
FDX2 (ferredoxin 2)	SID160754740	-0.732	-2.18	inactive
HTT (huntingtin)	SID160774889	0.526	6.67	inactive
HTT (huntingtin)	SID160774890	5.42	41.1	active
HTT (huntingtin)	SID160774891	-0.0274	2.77	inactive
NACAD (NAC alpha domain containing)	SID160735561	-1.31	-6.25	inactive
NACAD (NAC alpha domain containing)	SID160735563	0.924	9.47	inactive
NACAD (NAC alpha domain containing)	SID160735564	0.311	5.16	inactive
GUCA1C (guanylate cyclase activator 1C)	SID160722644	-0.213	1.47	inactive
GUCA1C (guanylate cyclase activator 1C)	SID160722645	0.702	7.9	inactive
GUCA1C (guanylate cyclase activator 1C)	SID160722646	-0.562	-0.99	inactive
